Measured values as given in publication PMC12670160, “A drug-repurposing screen of FDA- and EMA-approved drugs identifies two NF-κB inhibitors active against eumycetoma” (Journal of Antimicrobial Chemotherapy, 2025).
Structures can show the parent of a compound that is named as a salt. Out of some 5,300 compounds screened, about 130 (2.5%) showed an effect of 50% or more. Some of the results follow.

These compounds were tested on M. mycetomatis strain mm55. Conditions: primary screen, metabolic activity vs growth control; 96 h, 2 µM; inhibitor.

Compound	% viability
c1ccc(CN(CC2=NCCN2)c2ccccc2)cc1 [ONC0003232, antazoline phosphate]	94.34%
CC(=O)O[C@]1(C(C)=O)CC[C@H]2[C@@H]3CCC4=CC(=O)CC[C@]4(C)[C@H]3CC[C@@]21C [ONC0002124, hydroxyprogesteroneacetate]	61.66%
Cc1c(C(N)=O)cc([N+](=O)[O-])cc1[N+](=O)[O-] [ONC0002846, dinitolmide]	91.36%
CNC(=O)[C@H]1O[C@@H](n2cnc3c(NCc4cccc(I)c4)ncnc32)[C@H](O)[C@@H]1O [ONC0001664, ibmeca]	70.88%
C=C1C(=O)[C@]23[C@H](O)[C@H]1CC[C@@H]2[C@@]12CO[C@]3(O)C[C@@H]1C(C)(C)CC[C@@H]2O [ONC0004938, oridonin isodonol]	72.08%
CC(C)C(=O)OC[C@H]1O[C@@H](n2ccc(N)nc2=O)[C@](C)(F)[C@@H]1OC(=O)C(C)C [ONC0001098, mericitabine]	60.9%
C=CCN1CCN(c2nc3ccccc3nc2C#N)CC1 [ONC0003610, 3aqc]	60.26%
C[C@H]1CC2C3CCC4=CC(=O)C=C[C@]4(C)[C@@]3(F)[C@@H](O)C[C@]2(C)[C@@]1(O)C(=O)CO (stereo partly shown) [ONC0003301, betamethasone]	54.24%
N=C(N)N [ONC0003274, guanidine hydrochloride]	94.58%
CCN(CC)CCOC(=O)C1(c2ccccc2)CCCC1 [ONC0002837, caramiphen parpanil]	99.65%
NC(=O)OCCCc1ccccc1 [ONC0003674]	51.8%
COc1ccc(C[C@@H](C)[C@@H](C)Cc2ccc(OC)c(OC)c2)cc1OC [ONC0005582, terameprocol]	82.28%
C[C@H]1CC[C@H](n2c3cnccc3c3cnc(Nc4ccc5c(n4)CCN(C(=O)CO)C5)nc32)CC1 [ONC0002264, amg 925]	79.7%
COc1cc(/C=C2\CCC/C(=C\c3ccc(O)c(OC)c3)C2=O)ccc1O [ONC0002119, cyclovalone]	87.12%
Cc1ncc([N+](=O)[O-])n1CC(O)CCl (stereo not shown) [ONC0003978, ornidazole]	69.31%
N#Cc1ccc2[nH]cc(CCCCN3CCN(c4ccc5oc(C(N)=O)cc5c4)CC3)c2c1 [ONC0003916, vilazodone hydrochloride]	81.34%
Cc1cccc(C)c1NC(=O)C1CCCCN1C (stereo not shown) [ONC0002445, mepivacaine hydrochloride]	111.1%
COc1ccc(C2C(=O)c3ccccc3C2=O)cc1 [ONC0004151, anisindione]	108.5%
O=C(c1ccccn1)c1cnn2c(-c3ccncc3)ccnc12 [ONC0001896, ocinaplon]	62.52%
CN(C)c1ccc2nc3ccc(=[N+](C)C)cc-3sc2c1 [ONC0004147, methylene blue]	79.22%
NC(=O)N1c2ccccc2CC(O)c2ccccc21 (stereo not shown) [ONC0000143, licarbazepine]	71.66%
O=C(Nc1ccccc1)c1ccccc1O [ONC0003338, acetylsalicylanilide]	88%

Compound	% viability
FC(F)(F)c1ccc(CNc2ccc(Cc3c[nH]c4ncc(Cl)cc34)cn2)cn1 [ONC0001192, pexidartinib]	74.33%
COc1ccccc1C(=O)Nc1cccc(NC(=O)c2cccc(C)c2)c1 [ONC0003018, ml365]	119.2%
OCCNC1CCCc2c1[nH]c1ccc(-c3ccccc3)cc21 (stereo not shown) [ONC0003116, casin]	73.94%
O=C(CCCCCCC(=O)NO)NO [ONC0001756, sbha]	85.39%
O=C(Nc1ccc(S(=O)(=O)Nc2nccs2)cc1)C(c1ccccc1)c1ccccc1 [ONC0000915, ica121431]	66.28%
O=C1c2ccccc2-c2c(NCCc3ccccc3)c(=O)[nH]c3cccc1c23 [ONC0001816, brd7389]	84.69%
CO/N=C(\C(=O)N[C@@H]1C(=O)N2C(C(=O)O)=C(CSc3nc(=O)c(=O)[nH]n3C)CS[C@H]12)c1csc(N)n1 [ONC0002887, ceftriaxone sodium trihydrate]	67.76%
C[C@H]1CCO[C@H]2Cn3cc(C(=O)NCc4ccc(F)cc4F)c(=O)c(O)c3C(=O)N21 [ONC0005021, dolutegravir gsk1349572]	76.89%
CCCOc1ccc2c(c1)CC[C@@H]1[C@@H]2CC[C@]2(C)[C@@H](OC)CC[C@@H]12 [ONC0004758, promestriene]	100.2%
C[Se]CCC(N)C(=O)O (stereo not shown) [ONC0005356, selenomethionine]	116.1%
Fc1cc(F)c2c(c1)[C@H]1C=CC[C@H]1C(c1cccnc1)N2 (mixture of isomers) [ONC0005186, golgicide a]	78.39%
Cc1cccc(/C=N/Nc2cc(N3CCOCC3)n3nc(-c4ccncc4)cc3n2)c1 [ONC0001850, apy0201]	75.86%
CC(C)[C@H](CO)Nc1nc(Nc2cccc(Cl)c2)c2ncn(C(C)C)c2n1 [ONC0001475, purvalanola]	75.49%
Cc1[nH]c(=O)c(C#N)cc1-c1ccncc1 [ONC0004020, milrinone]	62.46%
N#Cc1c[nH]c2c(C(=O)N3CCN(CCc4ccc(F)cc4)CC3)cccc12 [ONC0002198, pruvanserin]	102.9%
CN(C)CCC=C1c2ccccc2CCc2ccccc21 [ONC0003200, amitriptyline hydrochloride]	117.8%
Cc1ccnc2c1NC(=O)c1cccnc1N2C1CC1 [ONC0002459, nevirapine]	62.76%
C#C[C@]1(O)CC[C@H]2[C@@H]3CCc4cc(OC5CCCC5)ccc4[C@H]3CC[C@@]21C [ONC0004086, quinestrol]	135.7%
CC(=O)c1cc([N+](=O)[O-])c(Sc2cccc(Cl)c2Cl)s1 [ONC0005124, p5091 p005091]	122.7%
Oc1ccc(Cl)c2c1CCC2 [ONC0002182, chlorindanol]	87.34%
CCN1C(C)(C)CC(Oc2ccc(C(=O)Nc3ccc(NC(=O)Nc4cc(C(C)(C)C)on4)cc3)nc2)CC1(C)C [ONC0001761, ac710]	92.29%
CS(=O)(=O)c1ccc(C2=C(c3ccccc3)C(=O)OC2)cc1 [ONC0001095, rofecoxib]	82.56%

Compound	% viability
CCC/C=C1\OC(=O)C2=C1CCC=C2 [ONC0002227, ligustilide]	61.12%
Cn1c(=O)c2[nH]cnc2n(C)c1=O [ONC0000574, theophylline]	77.82%
COc1ccc(N(C)c2nc(C)nc3ccccc23)cc1 [ONC0001332, verubulin]	79.48%
COc1cc(N)c(Cl)cc1C(=O)NC1CN2CCC1CC2 (stereo not shown) [ONC0002762, zacopride]	121.8%
CN(C(=O)c1ccc(F)cc1C(F)(F)F)C1CCN(c2nnc(-c3ccnn3C)c3ccccc23)CC1 [ONC0002243, taladegib]	65.41%
COc1cc2c(cc1OC)CN(CCc1ccc(NC(=O)c3cc(OC)c(OC)cc3NC(=O)c3cnc4ccccc4c3)cc1)CC2 [ONC0004365, tariquidar]	119.7%
CN(CCc1ccc(Cl)c(Cl)c1)CCN1CCCC1 [ONC0000135, bd1008]	97.22%
COc1cc(Cc2cnc(N)nc2N)cc(OC)c1OC [ONC0003250, trimethoprim]	82.12%
COc1ccc([C@H]2CNC(=O)C2)cc1OC1CCCC1 [ONC0002726, roliprams]	79.57%
CCN(CC)CCOC(=O)C(c1ccccc1)C1CCCCC1 (stereo not shown) [ONC0003180, drofenine hydrochloride]	119.4%
COCC1=C(C(=O)OC(C)OC(=O)OC(C)C)N2C(=O)[C@@H](NC(=O)/C(=N\OC)c3csc(N)n3)[C@H]2SC1 (stereo partly shown) [ONC0001902, cefpodoxime]	68.01%
CCCCCCCCCCCCC/C=C/[C@@H](O)[C@@H](N)COP(=O)(O)OCC[N+](C)(C)C [ONC0002992, sphingosylphosphorylcholine]	58.19%
COc1ccccc1C1(O)CCN(CCCn2c3ccccc3c3ccccc32)CC1 [ONC0003043, nnc052090]	75.31%
COc1ccc2c(c1)C=C1Cn3c-2c(C2CCCCC2)c2ccc(cc23)C(=O)NS(=O)(=O)N(C)CCOCCN(C)C1=O [ONC0000837, tmc647055 choline salt]	82.86%
CC(C)(C)c1ccc(CN2CCN(C(c3ccccc3)c3ccc(Cl)cc3)CC2)cc1 (stereo not shown) [ONC0001993, buclizine]	93.43%
C[C@@H](c1ccc2nccn2c1)n1nnc2ncc(-c3cnn(C)c3)nc21 [ONC0001055, savolitinib]	98.39%
Cc1cc(N2CCCCC2)nc2ccccc12 [ONC0001185, ml204]	94.66%
C=CCOc1ccc(CC(=O)O)cc1Cl [ONC0005454, alclofenac]	118.7%
COC(=O)C1=C(C)NC(C)=C(C(=O)O[C@H]2CCN(Cc3ccccc3)C2)[C@H]1c1cccc([N+](=O)[O-])c1 [ONC0003371, barnidipine hcl]	69.9%
O=C(O)CCc1c[nH]c2ccccc12 [ONC0002848, 3indolepropionic acid]	92.43%

Among those listed so far, these have a cyano group.
Compound	% viability
C=CCN1CCN(c2nc3ccccc3nc2C#N)CC1 [ONC0003610, 3aqc]	60.26%
N#Cc1ccc2[nH]cc(CCCCN3CCN(c4ccc5oc(C(N)=O)cc5c4)CC3)c2c1 [ONC0003916, vilazodone hydrochloride]	81.34%
Cc1[nH]c(=O)c(C#N)cc1-c1ccncc1 [ONC0004020, milrinone]	62.46%
N#Cc1c[nH]c2c(C(=O)N3CCN(CCc4ccc(F)cc4)CC3)cccc12 [ONC0002198, pruvanserin]	102.9%
